Measurements published in paper PMC4558493.
Results are given in words; binding and its absence hold for the method and conditions named. In cells and extracts the contact can be indirect. Some binding calls cover weakened binding; strength is not graded here.

The chains behind the UniProt entries cited, without tags or fusion partners.
UniProt Q06831: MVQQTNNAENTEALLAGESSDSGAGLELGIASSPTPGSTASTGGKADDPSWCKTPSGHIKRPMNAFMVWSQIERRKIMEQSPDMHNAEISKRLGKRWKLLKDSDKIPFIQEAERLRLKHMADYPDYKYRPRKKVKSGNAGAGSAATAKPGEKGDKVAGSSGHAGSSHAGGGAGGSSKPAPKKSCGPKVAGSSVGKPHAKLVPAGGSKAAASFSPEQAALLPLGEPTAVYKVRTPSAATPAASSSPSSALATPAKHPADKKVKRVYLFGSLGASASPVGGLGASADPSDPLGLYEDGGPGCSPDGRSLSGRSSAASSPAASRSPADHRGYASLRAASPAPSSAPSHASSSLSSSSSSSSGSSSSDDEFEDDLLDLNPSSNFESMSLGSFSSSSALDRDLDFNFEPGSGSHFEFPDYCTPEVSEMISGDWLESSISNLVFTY
UniProt Q92993: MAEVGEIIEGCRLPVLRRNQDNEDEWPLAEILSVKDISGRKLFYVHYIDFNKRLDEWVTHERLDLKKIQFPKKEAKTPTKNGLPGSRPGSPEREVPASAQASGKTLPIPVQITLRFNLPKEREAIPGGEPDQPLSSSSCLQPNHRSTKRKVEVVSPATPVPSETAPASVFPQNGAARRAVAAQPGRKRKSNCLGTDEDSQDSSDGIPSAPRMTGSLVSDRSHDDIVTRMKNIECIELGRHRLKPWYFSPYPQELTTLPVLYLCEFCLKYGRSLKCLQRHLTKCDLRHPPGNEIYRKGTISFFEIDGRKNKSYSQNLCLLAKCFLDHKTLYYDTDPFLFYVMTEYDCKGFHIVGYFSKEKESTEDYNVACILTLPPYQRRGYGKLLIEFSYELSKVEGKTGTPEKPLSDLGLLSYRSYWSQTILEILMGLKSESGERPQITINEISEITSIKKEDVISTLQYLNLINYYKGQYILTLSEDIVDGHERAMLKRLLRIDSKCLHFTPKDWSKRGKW
UniProt O09106: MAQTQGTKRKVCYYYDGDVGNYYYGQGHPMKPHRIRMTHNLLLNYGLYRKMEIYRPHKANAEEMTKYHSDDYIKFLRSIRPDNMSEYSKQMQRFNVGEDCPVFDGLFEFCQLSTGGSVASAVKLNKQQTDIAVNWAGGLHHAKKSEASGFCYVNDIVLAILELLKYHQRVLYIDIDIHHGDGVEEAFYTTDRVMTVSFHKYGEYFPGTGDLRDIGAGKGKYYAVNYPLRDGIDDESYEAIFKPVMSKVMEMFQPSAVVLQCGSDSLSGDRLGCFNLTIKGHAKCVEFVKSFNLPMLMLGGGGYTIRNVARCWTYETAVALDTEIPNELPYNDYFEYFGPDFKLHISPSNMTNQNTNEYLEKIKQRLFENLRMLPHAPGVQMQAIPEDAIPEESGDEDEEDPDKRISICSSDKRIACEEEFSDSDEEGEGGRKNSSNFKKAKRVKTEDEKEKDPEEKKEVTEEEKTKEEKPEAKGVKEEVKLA
UniProt Q8CHK4: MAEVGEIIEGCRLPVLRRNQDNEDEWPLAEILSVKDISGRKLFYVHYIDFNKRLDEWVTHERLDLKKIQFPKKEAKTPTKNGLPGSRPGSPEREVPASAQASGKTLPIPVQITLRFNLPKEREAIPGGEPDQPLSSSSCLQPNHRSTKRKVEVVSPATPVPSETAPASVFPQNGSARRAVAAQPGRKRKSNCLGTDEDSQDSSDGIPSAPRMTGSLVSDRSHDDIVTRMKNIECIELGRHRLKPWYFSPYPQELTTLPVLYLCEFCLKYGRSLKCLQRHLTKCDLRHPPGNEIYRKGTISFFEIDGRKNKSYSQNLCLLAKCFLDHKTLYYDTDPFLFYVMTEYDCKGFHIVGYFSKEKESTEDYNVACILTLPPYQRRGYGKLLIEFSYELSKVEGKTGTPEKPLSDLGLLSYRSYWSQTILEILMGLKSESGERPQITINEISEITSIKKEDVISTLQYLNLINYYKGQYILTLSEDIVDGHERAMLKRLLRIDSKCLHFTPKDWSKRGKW

Experiments:
[1] = target: GFP-fused full-length SOX4 (UniProt Q06831); experiment: co-IP; HEK293 cells co-transfected with FLAG- and GFP-tagged constructs; lysis in 1% Triton X-100, 150 mM NaCl, 50 mM Tris-HCl pH 7.5, 0.1% SDS, 1% Nonidet P-40; precipitated with anti-GFP or anti-FLAG antibodies on protein A/G-agarose at 4 °C overnight, blotted for the other tag
[2] = target: SOX4 (endogenous, C2C12) (mouse (endogenous in C2C12)) (UniProt Q06831); experiment: co-IP; KAT5-silenced C2C12 cells transfected with GFP-KAT5 WT or Y47A, 3 days in differentiation medium; lysates precipitated with SOX4 antibodies, bound KAT5 detected with KAT5 antibodies
FLAG-SOX4 = FLAG-SOX4 (UniProt Q06831); experiment: co-IP; HEK293 cells co-transfected with FLAG- and GFP-tagged constructs; lysis in 1% Triton X-100, 150 mM NaCl, 50 mM Tris-HCl pH 7.5, 0.1% SDS, 1% Nonidet P-40; precipitated with anti-GFP or anti-FLAG antibodies on protein A/G-agarose at 4 °C overnight, blotted for the other tag
FLAG-KAT5 = FLAG-KAT5 (UniProt Q92993); experiment: as above
[3] = target: SOX4 (endogenous, C2C12) (mouse (endogenous in C2C12)) (UniProt Q06831); experiment: co-IP; endogenous proteins; lysates of differentiating C2C12 cells (D3 in Figure 2b; indicated time points in Figure 7a) precipitated with SOX4 antibodies, blotted with KAT5 or HDAC1 antibodies
[4] = target: SOX4 (endogenous, C2C12) (mouse (endogenous in C2C12)) (UniProt Q06831); experiment: condition: only proliferating myoblasts (D0), before the induction of differentiation; co-IP; endogenous proteins; lysates of proliferating C2C12 myoblasts (D0) precipitated with SOX4 antibodies, blotted with KAT5 antibodies

FLAG-KAT5 (from UniProt Q92993 1-513)
binding [1]: binds

GFP-KAT5 WT (in C2C12) (from UniProt Q92993 1-513)
binding [2]: binds

GFP-KAT5 full-length (from UniProt Q92993 1-513)
binding (FLAG-SOX4): binds

GFP-fused full-length SOX4 (from UniProt Q06831 1-440)
binding (FLAG-KAT5): binds

HDAC1 (endogenous, C2C12) (from UniProt O09106 1-482)
binding [3]: binds

KAT5 (endogenous, C2C12) (from UniProt Q8CHK4 1-513)
binding [4]: no binding | binding [3]: binds
